# Test results published in publication PMC12355757, “TRIM6 ablation reverses ICB resistance in MSS gastric cancer by unleashing cGAS-STING-dependent antitumor immunity” (Journal of Experimental & Clinical Cancer Research : CR, 2025).
# The chains behind the UniProt entries cited, without tags or fusion partners. Where a name states a change or a piece, a line headed by the entry shows the natural chain unless it says otherwise.
# UniProt Q9C030: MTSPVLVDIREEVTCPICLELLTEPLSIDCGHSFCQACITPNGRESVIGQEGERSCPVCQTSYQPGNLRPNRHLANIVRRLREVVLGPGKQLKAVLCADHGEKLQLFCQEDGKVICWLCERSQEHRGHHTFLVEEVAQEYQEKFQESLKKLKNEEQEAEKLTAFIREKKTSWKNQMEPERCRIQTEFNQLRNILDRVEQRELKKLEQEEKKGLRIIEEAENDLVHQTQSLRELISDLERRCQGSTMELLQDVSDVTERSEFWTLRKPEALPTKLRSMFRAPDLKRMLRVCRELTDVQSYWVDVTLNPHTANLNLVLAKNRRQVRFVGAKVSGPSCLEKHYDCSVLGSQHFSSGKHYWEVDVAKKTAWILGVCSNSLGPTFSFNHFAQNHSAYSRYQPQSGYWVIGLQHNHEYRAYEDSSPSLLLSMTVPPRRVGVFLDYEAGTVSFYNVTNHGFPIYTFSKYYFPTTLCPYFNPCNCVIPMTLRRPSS
# UniProt Q8N884: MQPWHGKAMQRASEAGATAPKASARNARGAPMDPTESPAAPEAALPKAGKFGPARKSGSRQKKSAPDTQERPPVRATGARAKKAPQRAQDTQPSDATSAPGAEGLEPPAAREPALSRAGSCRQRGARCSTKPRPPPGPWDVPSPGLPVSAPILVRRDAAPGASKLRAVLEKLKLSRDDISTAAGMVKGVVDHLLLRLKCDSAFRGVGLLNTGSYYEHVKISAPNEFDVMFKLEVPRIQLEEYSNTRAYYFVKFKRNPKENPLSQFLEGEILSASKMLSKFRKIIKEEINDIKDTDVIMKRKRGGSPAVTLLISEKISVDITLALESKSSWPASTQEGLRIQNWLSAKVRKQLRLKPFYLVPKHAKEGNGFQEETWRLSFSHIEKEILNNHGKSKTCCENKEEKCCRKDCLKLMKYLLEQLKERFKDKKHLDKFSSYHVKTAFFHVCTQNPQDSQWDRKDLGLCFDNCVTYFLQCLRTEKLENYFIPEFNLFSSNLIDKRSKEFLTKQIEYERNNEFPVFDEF
# No constants are given. Whether binding was seen depends on the method and setting. For some of these results: Binding can be weak; no strength is given.
# Key:
# Assay in all cases: pull-down; purified His-cGAS incubated with GST, GST-TRIM6 or its truncated mutants on GST-tag resin overnight at 4 °C; 50 mM Tris pH 8.0, 200 mM NaCl, 1 mM EDTA, 1% NP-40, 1 mM DTT, 1 mM MgCl2; immunoblot with anti-His or anti-cGAS; both purified
# GST-TRIM6 ΔBbox (human) = GST-TRIM6 ΔBbox (human) (UniProt Q9C030)
# GST-TRIM6 ΔCC (human) = GST-TRIM6 ΔCC (human) (UniProt Q9C030)
# GST-TRIM6 ΔRING (human) = GST-TRIM6 ΔRING (human) (UniProt Q9C030)
# [1] = target: GST-TRIM6 ΔPRY-SPRY (human) (UniProt Q9C030)
substance,measurement,setting,value
Recombinant His-cGAS (from UniProt Q8N884 1-522) (enzyme),binding,GST-TRIM6 ΔBbox (human),binds
same,binding,GST-TRIM6 ΔCC (human),no binding
same,binding,GST-TRIM6 ΔRING (human),binds
same,binding,[1],no binding
